{"sequences": {"note": "The chains behind the UniProt entries cited, without tags or fusion partners.", "UniProt P48544, whole entry": "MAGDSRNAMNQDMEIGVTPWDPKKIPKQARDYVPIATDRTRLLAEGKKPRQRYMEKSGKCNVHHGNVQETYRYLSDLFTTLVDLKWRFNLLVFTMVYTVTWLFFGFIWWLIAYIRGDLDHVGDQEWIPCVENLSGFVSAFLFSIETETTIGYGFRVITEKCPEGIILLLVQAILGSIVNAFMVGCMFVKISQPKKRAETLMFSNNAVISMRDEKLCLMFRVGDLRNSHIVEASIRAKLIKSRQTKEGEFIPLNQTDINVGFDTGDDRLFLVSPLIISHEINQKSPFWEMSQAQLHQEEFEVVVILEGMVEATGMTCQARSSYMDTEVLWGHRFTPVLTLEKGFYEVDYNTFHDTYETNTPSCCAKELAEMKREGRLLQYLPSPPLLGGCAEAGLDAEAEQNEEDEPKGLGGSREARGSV", "UniProt P48549, whole entry": "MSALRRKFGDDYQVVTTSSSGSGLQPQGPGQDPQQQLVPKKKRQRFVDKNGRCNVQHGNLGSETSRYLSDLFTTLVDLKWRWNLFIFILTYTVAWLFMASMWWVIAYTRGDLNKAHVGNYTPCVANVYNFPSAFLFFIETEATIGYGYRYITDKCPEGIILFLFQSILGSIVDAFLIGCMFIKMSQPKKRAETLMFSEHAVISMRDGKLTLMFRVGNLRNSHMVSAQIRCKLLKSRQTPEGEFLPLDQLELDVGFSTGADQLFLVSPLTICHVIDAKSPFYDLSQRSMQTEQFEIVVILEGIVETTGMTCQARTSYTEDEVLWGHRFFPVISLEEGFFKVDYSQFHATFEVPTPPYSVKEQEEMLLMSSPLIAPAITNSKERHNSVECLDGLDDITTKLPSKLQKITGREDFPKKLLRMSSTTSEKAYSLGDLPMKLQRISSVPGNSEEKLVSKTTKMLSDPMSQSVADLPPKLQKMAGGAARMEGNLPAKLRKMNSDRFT"}, "source": "patent US8361998B2", "about": "“Compounds and their use as IKACh blockers” (AstraZeneca AB, priority 2010, dated 2013)", "biological_target": "human cardiac ion channel proteins hKir3.1/Kir3.4 (Homo sapiens, UniProt P48544+P48549)", "assay": "Atomic Absorption Screening (AAS) Rb efflux assay of hKir3.1/Kir3.4 block, carbachol/high K+ stimulated, 10-pt or 7-pt CR", "conditions": "read-out: IKACh IC50 10-pt CR, AAS, 10-pt CR (0.003 to 67 μmol/L), CHO-K1 cells expressing hKir3.1/Kir3.4, mean of >4 replicates", "source_text": "Human KCNJ3 encoding Kir3.1 (Genbank acc. No. NM_002239) was inserted between EcoRI and NotI in the pIRESneo3 vector (Clontech Laboratories, Inc. CA, USA). Human KCNJ5 encoding Kir3.4 (Genbank Acc. No. BC069482) was inserted between EcoR1 and Not1 in the pIRESpuro3 vector (Clontech Laboratories, Inc. CA, USA). A Kozak sequence (GCCACC) was introduced before the start codon ATG of both constructs. Chinese Hamster Ovary K1, CHO-FLP/IN, cells (Invitrogen Corporation, Paisley, UK) were transfected simultaneously using Lipofectamine 2000 reagent (Invitrogen Corporation, Paisley, UK). Geneticin 600 μg/mL (Invitrogen Corporation, Paisley, UK) and puromycin 3 μg/mL (BD Bioscience) were added to the cell culture medium 3 days after transfection. Two weeks after transfection, colonies had appeared and were manually picked and sorted to one cell per well in a 96-well plate. […]\nThe blocking effects of compounds on the human cardiac ion channel proteins hKir3.1/Kir3.4 were assessed in CHO-K1 cells stably expressing the channel proteins using Atomic Absorption Screening (AAS). […] After 10 min stimulation, […] of the supernatant was transferred to a new microplate, 45 μL washing buffer added to the supernatant and the level of Rb in the supernatant was then measured using an Aurora ICR 8000. […]", "note": "The match of structure and compound is tentative.", "data": [{"smiles": "CCC[C@@H](CN1CC(O)C1C)N(C)C(=O)c1ccc(F)cc1", "note": "(single isomer, unassigned) [43.6, isomer 2]", "values": [{"measurement": "IC50", "result": 9, "unit": "µM"}]}]}
